{"source": "PubChem BioAssay AID1159578 – Peter MacCallum Cancer Centre – 2015", "purpose": "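Genome-wide hunt for genes controlling movement of lymphatic endothelial cells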 (primary screen)", "system": "human lymphatic endothelial cells", "reagents": "siRNA pool against human genes, 40 nM", "duration": "48 h after transfection", "measured": "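High-content imaging of dye-stained cells in a scratch assay measures filled wound area and nuclei per well; duplicate means given as ratio to mock and robust z-score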", "scale": "migration robust z-score: higher = faster migration into the scratch; nuclei per well: higher = more cells in the well", "call rule": "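Migration changed when robust z exceeds 2 or falls below -2 and mean nuclei number is at least 3300; otherwise not called changed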", "meaning of the calls": "active = migration changed; inactive = no migration change, or too few cells", "note": "Here is an unselected part of about 18,000 reagents. About 1,030 of all reagents (5.7%) were called active. 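Inactive calls also include pools with fewer than 3300 nuclei, whose migration was not assessed.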 Raw values are not corrected between plates. Unmarked entries are inactive. Not all columns of the deposit are shown. No sequences are given here."}
{"gene": "SENP8", "migration robust z-score": 0.13, "migration class with cell-count check": "migration z between -2 and 2; enough cells", "nuclei per well, duplicate mean": 5324}
{"gene": "SDK2", "migration robust z-score": -1.57, "migration class with cell-count check": "migration z between -2 and 2; enough cells", "nuclei per well, duplicate mean": 5798}
{"gene": "EVL", "migration robust z-score": 0.09, "migration class with cell-count check": "migration z between -2 and 2; enough cells", "nuclei per well, duplicate mean": 5700}
{"gene": "SLC22A12", "migration robust z-score": 0.39, "migration class with cell-count check": "migration z between -2 and 2; enough cells", "nuclei per well, duplicate mean": 5879}
{"gene": "TACR1", "migration robust z-score": 1.32, "migration class with cell-count check": "migration z between -2 and 2; enough cells", "nuclei per well, duplicate mean": 6944}
{"gene": "CLCNKB", "migration robust z-score": -1.01, "migration class with cell-count check": "migration z between -2 and 2; enough cells", "nuclei per well, duplicate mean": 5022}
{"gene": "C8G", "migration robust z-score": -2, "migration class with cell-count check": "migration z between -2 and 2; enough cells", "nuclei per well, duplicate mean": 6988}
{"gene": "TIMP2", "migration robust z-score": -0.13, "migration class with cell-count check": "migration z between -2 and 2; enough cells", "nuclei per well, duplicate mean": 5374}
{"gene": "CA10", "migration robust z-score": -1.09, "migration class with cell-count check": "migration z between -2 and 2; enough cells", "nuclei per well, duplicate mean": 6352}
{"gene": "APLP1", "migration robust z-score": 0.64, "migration class with cell-count check": "migration z between -2 and 2; enough cells", "nuclei per well, duplicate mean": 5966}
{"gene": "ORC2", "migration robust z-score": 0.55, "migration class with cell-count check": "migration z between -2 and 2; enough cells", "nuclei per well, duplicate mean": 5434}

Laid out differently: entries from further up
CA10 | migration robust z-score: -1.09; migration class with cell-count check: migration z between -2 and 2; enough cells; nuclei per well, duplicate mean: 6352
APLP1 | migration robust z-score: 0.64; migration class with cell-count check: migration z between -2 and 2; enough cells; nuclei per well, duplicate mean: 5966
ORC2 | migration robust z-score: 0.55; migration class with cell-count check: migration z between -2 and 2; enough cells; nuclei per well, duplicate mean: 5434

More results follow.
{"gene": "NUCKS1", "migration robust z-score": 0.34, "migration class with cell-count check": "migration z between -2 and 2; enough cells", "nuclei per well, duplicate mean": 4806}
{"gene": "PAM16", "migration robust z-score": 0.88, "migration class with cell-count check": "migration z between -2 and 2; enough cells", "nuclei per well, duplicate mean": 5569}
{"gene": "TYW2", "migration robust z-score": 1.27, "migration class with cell-count check": "migration z between -2 and 2; enough cells", "nuclei per well, duplicate mean": 6810}
{"gene": "SMURF2", "migration robust z-score": "-2.7 (active)", "migration class with cell-count check": "migration z below -2; enough cells", "nuclei per well, duplicate mean": 4432}
{"gene": "NLK", "migration robust z-score": -0.96, "migration class with cell-count check": "migration z between -2 and 2; enough cells", "nuclei per well, duplicate mean": 4202}
{"gene": "POLR3D", "migration robust z-score": 1.14, "migration class with cell-count check": "migration z between -2 and 2; enough cells", "nuclei per well, duplicate mean": 5986}
{"gene": "ARHGAP32", "migration robust z-score": 0.88, "migration class with cell-count check": "migration z between -2 and 2; enough cells", "nuclei per well, duplicate mean": 5832}
{"gene": "EIF3H", "migration robust z-score": 0.21, "migration class with cell-count check": "migration z between -2 and 2; enough cells", "nuclei per well, duplicate mean": 5416}
{"gene": "INPP5B", "migration robust z-score": -1.03, "migration class with cell-count check": "migration z between -2 and 2; enough cells", "nuclei per well, duplicate mean": 4494}
{"gene": "GEMIN5", "migration robust z-score": 0.7, "migration class with cell-count check": "migration z between -2 and 2; enough cells", "nuclei per well, duplicate mean": 5564}
